Data on 42 sequences can be found in paper PMC7819943, “Rice protein-binding microarrays: a tool to detect cis-acting elements near promoter regions in rice”.

Amino acid sequences for entries named in this document (tags omitted).
UniProt Q0JBA9, entry or part of it: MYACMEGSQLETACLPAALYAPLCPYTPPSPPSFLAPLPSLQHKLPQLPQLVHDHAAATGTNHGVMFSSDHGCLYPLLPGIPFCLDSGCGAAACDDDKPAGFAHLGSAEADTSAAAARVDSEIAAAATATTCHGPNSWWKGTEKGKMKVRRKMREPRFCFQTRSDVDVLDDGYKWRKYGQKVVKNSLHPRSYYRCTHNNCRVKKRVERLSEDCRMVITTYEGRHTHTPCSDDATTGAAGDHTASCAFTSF

This is one part of the list.

For this assay, the target named is OsWRKY34 (Oryza sativa, UniProt Q0JBA9 1-250). Kind of assay: protein-binding microarray (RPBM); PBS, 2% BSA, 51.3 ng/ul salmon testes DNA, 50 uM zinc acetate, 200 nM TF, 25 C, 1 h; high values mean tight binding. Particulars: protein: recombinant; tags: N-terminal polyhistidine and DsRed monomer fusion (pET32a); label: CyDye5-dUTP incorporated in the synthesized complementary strand; 3' TTTTT single-stranded linker to array surface; dsDNA, one strand shown. The gist of the method: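 Transcription factors were made in E. coli BL21-CodonPlus as N-terminal fusions to a polyhistidine tag and DsRed, then purified on Ni–NTA. After primer extension with Cy5-dUTP and blocking with 2% BSA, a custom Agilent array was exposed for 1 h at 25 °C to 200 nM protein in PBS, 2% BSA, salmon testes DNA and 50 µM zinc acetate. Washed arrays were scanned on an Axon 4000B, and the binding signal is per-feature fluorescence intensity in arbitrary units.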
In the case of “GCTTTCCTCTTGCTACACTCCTTTTCTCCAAGTCATACACCGGAGTCACCTAGTGCAG”, the binding signal is 8890 fluorescence intensity (a.u.).

Regarding “GCGCTCACGTACCCGTCCCCGTCGCGGTCGAACACGCGCGCGGAGTCACCTAGTGCAG”, the binding signal is 8360 fluorescence intensity (a.u.). Then “CGTGACAAAGTCAGTGGCAAATCGTAGACGTGCGACAAAGCGGAGTCACCTAGTGCAG”, with 8790 fluorescence intensity (a.u.); and “CAGTGTTGTTTTCTTCATCTATTTCCCACCGGCAAATTGCCGGAGTCACCTAGTGCAG”, with 8590 fluorescence intensity (a.u.); and “GCCGCATGAACCGCCTCGCCTTCACCCGCCACCGCGCGCCCGGAGTCACCTAGTGCAG”, with 10000 fluorescence intensity (a.u.). As for “GGTCATTCCTGTGTTTTTTTTCTGTGTTTTGCAATTATCTCGGAGTCACCTAGTGCAG”, the binding signal was 14500 fluorescence intensity (a.u.). Then “ACACCTATTAGATATTTTTTAAAATACCTCTACAGTATTGCGGAGTCACCTAGTGCAG”, with 8900 fluorescence intensity (a.u.).

For “ACAACATTTTACTTTTTTTTCATCCTCATGTCCGTAACATCGGAGTCACCTAGTGCAG”, the binding signal is 8820 fluorescence intensity (a.u.).

In the case of “ATCCATCCAACATGACTCGTTCACCACATTGTGCTTTATTCGGAGTCACCTAGTGCAG”, the binding signal is 9700 fluorescence intensity (a.u.). Next, “ACCCTGTACGTACGCACGCCCATTGTTCGTGACCTCCCCACGGAGTCACCTAGTGCAG”: 8900 fluorescence intensity (a.u.); “GAATCTCAGCCGCGTCATCCACCTCATTGCTCTTATCCGACGGAGTCACCTAGTGCAG”: 8940 fluorescence intensity (a.u.); “ATATGGACTTTATTTTTCTTTTTCTCCGATTAATATGAGACGGAGTCACCTAGTGCAG”: 9380 fluorescence intensity (a.u.).

With “GTCATCTCATCACCGGCGACCCCGCCGTGACGTGACGTCACGGAGTCACCTAGTGCAG”, the binding signal was 8430 fluorescence intensity (a.u.). Then “CGGTGTACTTTTTCCCCTTGCGTTTGGTCTATTTTTACTACGGAGTCACCTAGTGCAG”, with 10700 fluorescence intensity (a.u.). Then “CGTCGGCCTCAATCTTCTTCCGCGCGCGCCGCCGCCGGTCCGGAGTCACCTAGTGCAG”, with 8490 fluorescence intensity (a.u.). Then “TCTTTTTATACCCTATAGTAGTCCTAGGCATATACTACCCCGGAGTCACCTAGTGCAG”, with 8060 fluorescence intensity (a.u.); and “GGTCAACAATATGTCCCTCGGTGGTTTTGATCCTGGTTCTCGGAGTCACCTAGTGCAG”, with 9930 fluorescence intensity (a.u.). For “AACGGTTTCGCTACCAACAACGGCTCGTGTTCTTCTGAAGCGGAGTCACCTAGTGCAG”, the binding signal was 8530 fluorescence intensity (a.u.). Turning to “TGTCCTGTGTCACATATAATGGCGTTTCAGCTGTAATCTACGGAGTCACCTAGTGCAG”, the binding signal was 9210 fluorescence intensity (a.u.). With “CAATCATAACCTTAACCTTTCTCAACCTTTATGCTCTTTACGGAGTCACCTAGTGCAG”, the binding signal was 8300 fluorescence intensity (a.u.).

In the case of “TGACTTTTATATATAGCTTTCGTGTGAACTAATTACTTCACGGAGTCACCTAGTGCAG”, the binding signal is 9740 fluorescence intensity (a.u.). “TTACTGCTAGCTTCATTTATTTTGGACGGGGTTAGTACATCGGAGTCACCTAGTGCAG”: the binding signal was 13300 fluorescence intensity (a.u.). Then “CACCCGAGCCGCATCGCCCATCCACCCACGCCACATCGCTCGGAGTCACCTAGTGCAG”, with 10000 fluorescence intensity (a.u.); and “ACCCCGATGACCAGTCTACTGCTCTCCACATACTAGCAGCCGGAGTCACCTAGTGCAG”, with 8110 fluorescence intensity (a.u.); and “ACCAACCCCATCGCTCCCTCGACCATCGCCGCAATCCCTTCGGAGTCACCTAGTGCAG”, with 11800 fluorescence intensity (a.u.). Next, “AACTCACCGCTTATCTACTCTCTCACGCTGTCATCTAAACCGGAGTCACCTAGTGCAG”: 12900 fluorescence intensity (a.u.); “ACTCCTCCGCTCGCTTTGCGCCATCGCCGCCACCGACGCCCGGAGTCACCTAGTGCAG”: 10200 fluorescence intensity (a.u.). Turning to “TCTACGTGTCTCTTAGCATTCTTTTTTCCTTATAAATACTCGGAGTCACCTAGTGCAG”, the binding signal was 8490 fluorescence intensity (a.u.). Next, “TCCACTCCACAGTCCACACCACACGACGCCCCAAACCCTCCGGAGTCACCTAGTGCAG”: 8710 fluorescence intensity (a.u.).

Regarding “GGGGTGGAGTTTGATCTCTTGCAAGACAGATTTGCTACGACGGAGTCACCTAGTGCAG”, the binding signal was 10800 fluorescence intensity (a.u.). “CCGTTCTTCCCTCTCTCTCTCTCTTTCTCTCTACATATGACGGAGTCACCTAGTGCAG”: the binding signal is 10400 fluorescence intensity (a.u.).

For the sequence “ATTCAGCACATTTGTTTGACAGGAGCCGTGTCTCGAATAACGGAGTCACCTAGTGCAG”, the binding signal is 8730 fluorescence intensity (a.u.). Next, “ATGAGCCCATCCGTCACTGCCACGGTTCCATCAACATCTACGGAGTCACCTAGTGCAG”: 8560 fluorescence intensity (a.u.). Then “CCTCGTCGGCGCCGCCGTGTTGCTGCTGCCCGCGGCGCGCCGGAGTCACCTAGTGCAG”, with 8970 fluorescence intensity (a.u.); and “CACTTCACACACGCTCCTTCTGTAGTTCATTGGCTTGCTTCGGAGTCACCTAGTGCAG”, with 8480 fluorescence intensity (a.u.). Next, “ATGCGTTGTGCAGATGCAGAGGTGTTTGTTGTTGTCGTGGCGGAGTCACCTAGTGCAG”: 9290 fluorescence intensity (a.u.). For the sequence “CGAGTCGAGCTTTTCTTTCTTTGGTTGGTTGGTTGGTGTTCGGAGTCACCTAGTGCAG”, the binding signal is 19600 fluorescence intensity (a.u.). With “GCTTTTAGAAACCGGTATCTTCAAGAAATCCACGTTTGACCGGAGTCACCTAGTGCAG”, the binding signal is 9400 fluorescence intensity (a.u.). As for “TGGATGCTAGTTTAGTTTTTTTTTATGTTGTCACGTCGAACGGAGTCACCTAGTGCAG”, the binding signal was 10500 fluorescence intensity (a.u.).

Consider “TTGGATTGGTTACTATGTTTGCATTTACACTATTTATTATCGGAGTCACCTAGTGCAG”, for which the binding signal was 10300 fluorescence intensity (a.u.). Then “AAAATCTCCTACTAGCTCACTTCACAATGGATCAAACAAACGGAGTCACCTAGTGCAG”, with 8230 fluorescence intensity (a.u.); and “TGTACGTGACCAGTAACGCGTTGACCTTTTCTTTGTTGAACGGAGTCACCTAGTGCAG”, with 17000 fluorescence intensity (a.u.).
